Laboratory results taken from paper PMC9576728.
These are yes or no findings as the source states them, for the method shown. In cells and extracts the contact can be indirect. A result given as binding can be weak or reduced; the word gives no strength. For some assays here: Tags and fused reporters may be left off the sequences shown.

Sequences of proteins named here, by UniProt entry; tags and fusion partners are left off. A change or cut given only in a name is not applied to a line headed by its entry.
UniProt A8K830: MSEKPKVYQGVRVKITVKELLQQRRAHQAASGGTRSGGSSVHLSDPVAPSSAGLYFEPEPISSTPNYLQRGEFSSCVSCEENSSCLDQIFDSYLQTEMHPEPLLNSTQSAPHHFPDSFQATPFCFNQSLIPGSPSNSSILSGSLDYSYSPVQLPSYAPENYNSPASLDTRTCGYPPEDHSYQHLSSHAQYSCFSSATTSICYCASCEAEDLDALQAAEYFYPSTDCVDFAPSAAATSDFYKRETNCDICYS

How the values were obtained:
[1] = target: T1, FLAG-POU2F3 (UniProt Q9UKI9); test: co-IP; immunoprecipitation-western blot of HEK293T cells expressing FLAG-POU2F3 and HA-COLCA2-WT/DAAPP (Fig. 1h); which protein was precipitated is not told
T1 sequence: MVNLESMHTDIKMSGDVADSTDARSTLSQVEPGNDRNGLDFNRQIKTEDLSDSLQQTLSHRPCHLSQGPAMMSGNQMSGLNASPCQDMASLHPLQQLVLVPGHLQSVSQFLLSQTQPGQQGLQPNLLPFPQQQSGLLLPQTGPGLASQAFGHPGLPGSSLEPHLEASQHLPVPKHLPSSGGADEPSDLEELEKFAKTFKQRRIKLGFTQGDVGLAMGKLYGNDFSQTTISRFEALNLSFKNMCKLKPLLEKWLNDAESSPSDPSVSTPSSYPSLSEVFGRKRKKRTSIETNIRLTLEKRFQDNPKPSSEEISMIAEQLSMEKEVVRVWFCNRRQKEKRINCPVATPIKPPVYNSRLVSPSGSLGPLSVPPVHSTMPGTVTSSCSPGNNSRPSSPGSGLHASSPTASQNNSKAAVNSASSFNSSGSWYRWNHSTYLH

[2] = target: T2, POU2F3 (UniProt Q9UKI9); test: co-IP; immunoprecipitation-western blot of HEK293T cells expressing HA-COLCA2 (WT or DAAPP mutant) and POU2F3 (Fig. 1g); which protein was precipitated is not told
T2 sequence: T1 sequence

binding [1]: binds
binding [2]: binds
Substance: HA-COLCA2 mutant where VKELL in the motif is mutated to DAAPP (from UniProt A8K830)
